These are yes or no findings as the source states them, for the method shown. Some binding calls cover weakened binding; strength is not graded here. Sequences can lack the tags named with a protein.
Target: T1, extracellular domain (ECD) of the type II receptor daf-4, hexa-histidine tagged (C. elegans)
T1 sequence (chain, heavily glycosylated): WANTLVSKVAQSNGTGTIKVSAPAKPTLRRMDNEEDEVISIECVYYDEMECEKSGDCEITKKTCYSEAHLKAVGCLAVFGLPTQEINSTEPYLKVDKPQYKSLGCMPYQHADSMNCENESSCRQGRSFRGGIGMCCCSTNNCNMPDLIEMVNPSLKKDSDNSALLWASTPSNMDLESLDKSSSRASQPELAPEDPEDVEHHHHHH
Experiment: ligand blot with 125I-BMP-7 on purified daf-4 ECD; inhibited by excess unlabeled BMP-7

Amino acid sequences for entries named in this document (tags omitted). Residues count along the entry.
UniProt P18075, residues 293-431: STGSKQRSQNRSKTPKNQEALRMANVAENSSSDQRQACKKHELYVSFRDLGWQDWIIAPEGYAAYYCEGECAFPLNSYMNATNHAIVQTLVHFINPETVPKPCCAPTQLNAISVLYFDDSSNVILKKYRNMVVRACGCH

Substance: bone morphogenetic protein-7 (from UniProt P18075 293-431) (ligand)
- binding: binds
